Results published in patent US20190092839A1.
No constants are given. Whether binding was seen depends on the method and setting. Some entries that bind do so weakly or less than the wild type.

Target: iRFP-pMagH-C-term scFvGCN4
Assay: inferred from relocalisation of fluorescence in HeLa cells after light (nMagH with pMagH)

binding: binds
B1: N-term scFvGCN4-nMagH-fuRed (protein)
chain: MGPDIVMTQSPSSLSASVGDRVTITCRSSTGAVTTSNYASWVQEKPGKLFKGLIGGTNNRAPGVPSRFSGSLIGDKATLTISSLQPEDFATYFCALWYSNHWVFGQGTKVELKRGGGGSGGGGSGGGGSSGGGSEVKLLESGGGLVQPGGSLKLSCAVSGFSLTDYGVNWVRQAPGRGLEWIGVIWGDGITDYNSAGGGGSGGGGSHTLYAPGGYDIMGYLDQIGNRPNPQVELGPVDTSCALILCDLKQKDTPIVYASEAFLYMTGYSNAEVLGRNCRFLQSPDGMVKPKSTRKYVDSNTINTIRKAIDRNAEVQVEVVNFKKNGQRFVNFLTIIPVRDETGEYRYSMGFQCETEMVSELIKENMPMKLYMEGTVNNHHFKCTSEGEGKPYEGTQTMRIKVVEGGPLPFAFDILATSFMYGSRTFIKHPPGIPDFFKQSFPEGFTWERVTTYEDGGVLTATQDTSLQDGCLIYNVKVRGVNFPANGPVMQKKTLGWEASTETMYPADGGLEGACDMALKLVGGGHLICNLETTYRSKKPATNLKMPGVYNVDHRLERIKEADDETYVEQHEVAVARYSTGGAGDGGK
